Test results published in patent publication US20130210167A1, “IMMUNOASSAY FOR PYRROLIDINOPHENONES” (RANDOX LABORATORIES LIMITED, priority 2012, published 2013).

Test system: polyclonal antibody raised to Immunogen IV
Experiment: Competitive biochip immunoassay of pyrrolidinophenones and potential cross-reactants (Evidence Investigator)
Type: binding, sheep

CN1CC[C@]23c4c5ccc(O)c4O[C@H]2[C@@H](O)C=C[C@H]3[C@H]1C5.O=S(=O)(O)O [Morphine sulphate]
% Cross-reactivity: <1%
